This experiment deals with Malate synthase G (GlcB) (Mycobacterium tuberculosis H37Rv) (UniProt P9WK17). As to the kind of experiment: SEC; both purified. In general terms: Size exclusion chromatography separates by hydrodynamic size, large species first.

The chains behind the UniProt entries cited, without tags or fusion partners.
UniProt P9WK17: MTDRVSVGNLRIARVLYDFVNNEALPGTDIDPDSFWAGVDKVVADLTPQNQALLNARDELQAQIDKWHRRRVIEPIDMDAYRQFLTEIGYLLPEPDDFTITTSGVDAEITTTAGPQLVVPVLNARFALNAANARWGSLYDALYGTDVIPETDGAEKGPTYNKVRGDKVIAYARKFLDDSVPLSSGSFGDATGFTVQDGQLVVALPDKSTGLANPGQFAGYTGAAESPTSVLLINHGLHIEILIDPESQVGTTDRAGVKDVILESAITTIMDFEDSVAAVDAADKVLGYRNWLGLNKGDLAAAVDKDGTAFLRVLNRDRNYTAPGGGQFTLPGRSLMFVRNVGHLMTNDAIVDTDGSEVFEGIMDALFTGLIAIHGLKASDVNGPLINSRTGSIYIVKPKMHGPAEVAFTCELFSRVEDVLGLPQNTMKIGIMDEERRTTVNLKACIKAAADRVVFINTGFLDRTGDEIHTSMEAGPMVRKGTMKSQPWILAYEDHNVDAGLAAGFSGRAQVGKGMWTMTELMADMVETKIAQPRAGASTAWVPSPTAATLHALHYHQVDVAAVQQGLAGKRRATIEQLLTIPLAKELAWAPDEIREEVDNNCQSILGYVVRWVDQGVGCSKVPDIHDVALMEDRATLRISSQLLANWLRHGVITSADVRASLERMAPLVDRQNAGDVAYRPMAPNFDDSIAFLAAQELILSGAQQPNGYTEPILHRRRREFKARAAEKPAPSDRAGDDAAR

These are yes or no findings as the source states them, for the method shown.

In the case of “Malate synthase G (GlcB) (from UniProt P9WK17 1-741) (enzyme)”, the binding result was “no binding”.

Source of the values: publication PMC5095800, “A standardized production pipeline for high profile targets from Mycobacterium tuberculosis” (Proteomics. Clinical Applications, 2016).
